Laboratory results as given in PMC6075439.
These are yes or no findings as the source states them, for the method shown. For part of these data: Binding seen in cells or lysates may run through a third protein. Some binding calls cover weakened binding; strength is not graded here. For part of these data: Sequences can lack the tags named with a protein.

T1: endothelial nitric oxide synthase (human (endogenous in HUVECs)), P29474
T1 chain: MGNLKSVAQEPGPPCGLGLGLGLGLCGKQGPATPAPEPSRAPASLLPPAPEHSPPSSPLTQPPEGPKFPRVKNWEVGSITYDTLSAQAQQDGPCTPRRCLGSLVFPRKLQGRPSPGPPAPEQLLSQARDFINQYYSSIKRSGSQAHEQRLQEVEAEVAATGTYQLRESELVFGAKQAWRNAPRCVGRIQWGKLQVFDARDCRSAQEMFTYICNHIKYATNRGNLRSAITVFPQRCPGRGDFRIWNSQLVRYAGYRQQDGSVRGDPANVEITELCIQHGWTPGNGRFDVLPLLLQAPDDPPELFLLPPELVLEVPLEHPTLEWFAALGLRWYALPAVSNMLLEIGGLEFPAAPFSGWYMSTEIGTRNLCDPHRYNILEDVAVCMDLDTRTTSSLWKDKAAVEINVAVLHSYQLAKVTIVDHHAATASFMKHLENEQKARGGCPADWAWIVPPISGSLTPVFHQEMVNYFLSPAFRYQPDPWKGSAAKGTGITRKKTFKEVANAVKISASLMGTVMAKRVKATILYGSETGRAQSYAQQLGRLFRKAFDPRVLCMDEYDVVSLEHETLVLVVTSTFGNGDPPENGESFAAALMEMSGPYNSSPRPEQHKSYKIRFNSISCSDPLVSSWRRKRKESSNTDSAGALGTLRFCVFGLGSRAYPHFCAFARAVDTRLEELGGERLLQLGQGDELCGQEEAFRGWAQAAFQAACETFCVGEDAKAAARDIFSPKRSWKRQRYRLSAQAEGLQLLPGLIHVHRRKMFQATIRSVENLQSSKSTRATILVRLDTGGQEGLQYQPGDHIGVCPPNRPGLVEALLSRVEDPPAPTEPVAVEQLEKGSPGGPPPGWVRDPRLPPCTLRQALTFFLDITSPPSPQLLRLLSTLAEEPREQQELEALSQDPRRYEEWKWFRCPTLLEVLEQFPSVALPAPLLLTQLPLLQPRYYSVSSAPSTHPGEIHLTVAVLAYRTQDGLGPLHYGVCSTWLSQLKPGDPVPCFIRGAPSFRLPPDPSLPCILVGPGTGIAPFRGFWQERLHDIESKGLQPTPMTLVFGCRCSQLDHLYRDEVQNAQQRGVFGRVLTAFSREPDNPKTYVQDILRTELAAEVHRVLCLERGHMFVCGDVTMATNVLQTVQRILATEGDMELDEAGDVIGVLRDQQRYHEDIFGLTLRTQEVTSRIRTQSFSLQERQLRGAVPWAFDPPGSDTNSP

T2: endothelial nitric oxide synthase (human (endogenous in HUVECs)) (UniProt P29474)
T2 sequence: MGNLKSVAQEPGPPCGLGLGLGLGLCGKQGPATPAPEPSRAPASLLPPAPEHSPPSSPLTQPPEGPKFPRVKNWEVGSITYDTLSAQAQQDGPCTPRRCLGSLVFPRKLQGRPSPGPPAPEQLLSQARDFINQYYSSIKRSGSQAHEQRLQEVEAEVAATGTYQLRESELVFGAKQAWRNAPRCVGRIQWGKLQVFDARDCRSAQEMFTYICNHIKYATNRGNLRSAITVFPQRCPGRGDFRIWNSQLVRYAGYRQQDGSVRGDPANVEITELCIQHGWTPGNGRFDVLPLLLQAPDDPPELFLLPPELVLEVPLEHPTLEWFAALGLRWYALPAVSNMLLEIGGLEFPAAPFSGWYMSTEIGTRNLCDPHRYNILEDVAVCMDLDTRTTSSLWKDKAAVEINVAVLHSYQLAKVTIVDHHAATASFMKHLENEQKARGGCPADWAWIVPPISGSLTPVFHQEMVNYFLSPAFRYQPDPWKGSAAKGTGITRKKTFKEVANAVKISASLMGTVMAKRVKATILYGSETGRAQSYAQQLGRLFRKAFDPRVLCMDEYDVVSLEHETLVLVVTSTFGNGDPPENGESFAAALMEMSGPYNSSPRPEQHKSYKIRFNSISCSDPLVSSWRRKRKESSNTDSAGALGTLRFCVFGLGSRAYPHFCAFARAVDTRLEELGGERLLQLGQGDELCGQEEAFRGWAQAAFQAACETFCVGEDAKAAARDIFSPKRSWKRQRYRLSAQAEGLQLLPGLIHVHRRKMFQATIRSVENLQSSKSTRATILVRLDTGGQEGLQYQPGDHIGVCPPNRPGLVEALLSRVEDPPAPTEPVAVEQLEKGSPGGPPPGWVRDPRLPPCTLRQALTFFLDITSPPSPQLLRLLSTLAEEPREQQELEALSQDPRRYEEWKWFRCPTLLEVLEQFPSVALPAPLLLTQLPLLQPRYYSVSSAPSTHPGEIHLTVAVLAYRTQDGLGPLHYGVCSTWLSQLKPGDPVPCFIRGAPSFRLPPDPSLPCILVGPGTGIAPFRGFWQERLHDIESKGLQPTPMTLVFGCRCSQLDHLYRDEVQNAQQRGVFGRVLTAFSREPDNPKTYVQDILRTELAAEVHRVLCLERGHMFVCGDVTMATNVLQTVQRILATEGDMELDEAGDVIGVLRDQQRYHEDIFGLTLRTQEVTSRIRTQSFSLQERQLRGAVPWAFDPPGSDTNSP


Assays:
[1] = target: T1, endothelial nitric oxide synthase …; assay: low-temperature SDS-PAGE; total proteins in loading buffer without 2-mercaptoethanol, 37 °C for 5 min, 8% SDS-PAGE for 4 h at 40 mA with the tank in an ice bath, eNOS dimers and monomers detected by blot; dimer to monomers; cells with or without H2O2, Hemin, Ad-HO-1 or HO-1 siRNA; settings: remark: other sources report otherwise
[2] = target: T2, endothelial nitric oxide synthase (human (endogenous in HUVECs)); assay: co-IP; rabbit polyclonal anti-eNOS added to 300 ug HUVEC lysate overnight at 4 °C, protein A/G beads 4 h at 4 °C, washed 3 times with lysis buffer containing 150-500 mM NaCl, immunoblotting; cells with or without H2O2 (50 uM), Hemin or Ad-HO-1

Row | Binder | binding [1] | binding [2]
1 | endothelial nitric oxide synthase, P29474 1-1203 (enzyme) MGNLKSVAQEPGPPCGLGLGLGLGLCGKQGPATPAPEPSRAPASLLPPAPEHSPPSSPLTQPPEGPKFPRVKNWEVGSITYDTLSAQAQQDGPCTPRRCLGSLVFPRKLQGRPSPGPPAPEQLLSQARDFINQYYSSIKRSGSQAHEQRLQEVEAEVAATGTYQLRESELVFGAKQAWRNAPRCVGRIQWGKLQVFDARDCRSAQEMFTYICNHIKYATNRGNLRSAITVFPQRCPGRGDFRIWNSQLVRYAGYRQQDGSVRGDPANVEITELCIQHGWTPGNGRFDVLPLLLQAPDDPPELFLLPPELVLEVPLEHPTLEWFAALGLRWYALPAVSNMLLEIGGLEFPAAPFSGWYMSTEIGTRNLCDPHRYNILEDVAVCMDLDTRTTSSLWKDKAAVEINVAVLHSYQLAKVTIVDHHAATASFMKHLENEQKARGGCPADWAWIVPPISGSLTPVFHQEMVNYFLSPAFRYQPDPWKGSAAKGTGITRKKTFKEVANAVKISASLMGTVMAKRVKATILYGSETGRAQSYAQQLGRLFRKAFDPRVLCMDEYDVVSLEHETLVLVVTSTFGNGDPPENGESFAAALMEMSGPYNSSPRPEQHKSYKIRFNSISCSDPLVSSWRRKRKESSNTDSAGALGTLRFCVFGLGSRAYPHFCAFARAVDTRLEELGGERLLQLGQGDELCGQEEAFRGWAQAAFQAACETFCVGEDAKAAARDIFSPKRSWKRQRYRLSAQAEGLQLLPGLIHVHRRKMFQATIRSVENLQSSKSTRATILVRLDTGGQEGLQYQPGDHIGVCPPNRPGLVEALLSRVEDPPAPTEPVAVEQLEKGSPGGPPPGWVRDPRLPPCTLRQALTFFLDITSPPSPQLLRLLSTLAEEPREQQELEALSQDPRRYEEWKWFRCPTLLEVLEQFPSVALPAPLLLTQLPLLQPRYYSVSSAPSTHPGEIHLTVAVLAYRTQDGLGPLHYGVCSTWLSQLKPGDPVPCFIRGAPSFRLPPDPSLPCILVGPGTGIAPFRGFWQERLHDIESKGLQPTPMTLVFGCRCSQLDHLYRDEVQNAQQRGVFGRVLTAFSREPDNPKTYVQDILRTELAAEVHRVLCLERGHMFVCGDVTMATNVLQTVQRILATEGDMELDEAGDVIGVLRDQQRYHEDIFGLTLRTQEVTSRIRTQSFSLQERQLRGAVPWAFDPPGSDTNSP | binds | 
2 | heme oxygenase-1 (enzyme, UniProt P09601 1-288) MERPQPDSMPQDLSEALKEATKEVHTQAENAEFMRNFQKGQVTRDGFKLVMASLYHIYVALEEEIERNKESPVFAPVYFPEELHRKAALEQDLAFWYGPRWQEVIPYTPAMQRYVKRLHEVGRTEPELLVAHAYTRYLGDLSGGQVLKKIAQKALDLPSSGEGLAFFTFPNIASATKFKQLYRSRMNSLEMTPAVRQRVIEEAKTAFLLNIQLFEELQELLTHDTKDQSPSRAPGLRQRASNKVQDSAPVETPRGKPPLNTRSQAPLLRWVLTLSFLVATVAVGLYAM |  | binds
3 | GFP-HO-1 (HO-1 from the recombinant adenovirus encoding human HO-1 with a GFP) (enzyme, UniProt P09601 1-288) MERPQPDSMPQDLSEALKEATKEVHTQAENAEFMRNFQKGQVTRDGFKLVMASLYHIYVALEEEIERNKESPVFAPVYFPEELHRKAALEQDLAFWYGPRWQEVIPYTPAMQRYVKRLHEVGRTEPELLVAHAYTRYLGDLSGGQVLKKIAQKALDLPSSGEGLAFFTFPNIASATKFKQLYRSRMNSLEMTPAVRQRVIEEAKTAFLLNIQLFEELQELLTHDTKDQSPSRAPGLRQRASNKVQDSAPVETPRGKPPLNTRSQAPLLRWVLTLSFLVATVAVGLYAM |  | binds
